# Reference: PubChem BioAssay (EPA / NIEHS)
# Chains of the proteins cited; added tags and fusions are not shown. Lines headed by an entry give the natural chain unless they say otherwise; changes in a name come on top.
# UniProt P11511: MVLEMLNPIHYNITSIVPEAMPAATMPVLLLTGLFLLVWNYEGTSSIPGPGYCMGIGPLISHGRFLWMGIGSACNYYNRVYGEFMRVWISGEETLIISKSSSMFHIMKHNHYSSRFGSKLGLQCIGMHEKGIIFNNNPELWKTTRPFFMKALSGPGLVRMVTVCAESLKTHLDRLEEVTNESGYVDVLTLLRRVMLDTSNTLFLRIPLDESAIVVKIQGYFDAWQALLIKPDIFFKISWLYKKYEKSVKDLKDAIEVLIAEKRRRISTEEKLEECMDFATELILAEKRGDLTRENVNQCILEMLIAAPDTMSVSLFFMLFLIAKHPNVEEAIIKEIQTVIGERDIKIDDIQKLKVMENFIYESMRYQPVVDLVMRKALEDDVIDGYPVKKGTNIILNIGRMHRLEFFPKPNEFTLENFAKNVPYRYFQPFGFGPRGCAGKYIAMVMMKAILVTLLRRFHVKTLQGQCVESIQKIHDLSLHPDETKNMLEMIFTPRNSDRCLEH
# Where “and” joins values, the source holds several entries; their conditions need not be identical. Identical values can stand only once. The shares of active, inactive and inconclusive entries below differ from those in the screen. Potencies of inconclusive entries are doubtful fits and often do not repeat. Where a structure was tested more than once in an assay, its records may differ in their call. Calls of active or inactive are those of the source. Rule for the calls: active = hit-call score of the fitted dose curve at least 0.9, where 1 is the maximum; inconclusive = response in the unintended direction; inactive = score below 0.9.
# Molecular target: human CYP19A1, CYP19A1 (gene 1588) (UniProt P11511)
# Assay: NVS_ADME_hCYP19A1: NovaScreen (NVS) CYP450-related Enzyme Activity (ADME) Assay for human CYP19A1 (AID 2283098);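 for AC50: potency for inhibitors seen as loss of fluorescent enzyme signal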
# In short: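 Compounds were first screened at 10 uM in duplicate against purified enzyme, with a fluorogenic substrate and fluorescence intensity detection after 0.5 h. Inhibition appears as reduced signal against acetonitrile control.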
SMILES,outcome,AC50
CCCOC(=O)c1ccc(C(=O)OCCC)nc1,inactive,–
C=C[Si](C)(C)O[Si](C)(C)C=C,–,inconclusive: 10 µM
O=C(O)Cc1ccccc1Nc1c(Cl)cccc1Cl,–,inconclusive: 0.182 µM
CN(C[C@@H](CC[N+]12CCC(C3CCCCC3)(CC1)CC2)c1ccc(Cl)c(Cl)c1)C(=O)c1cc(C(F)(F)F)cc(C(F)(F)F)c1,–,inconclusive: 0.103 µM
CN1CCN(c2ccccc2/C=C2\SCCN(c3ccc(Cl)c(Cl)c3)C2=O)CC1,–,inconclusive: 0.582 µM
CC(C)(c1ccc(O)cc1)c1ccc(O)cc1,inactive,inconclusive: 10 µM
O=C(c1ccccc1)C1CCCCC1,–,inconclusive: 10 µM and inconclusive: 40 nM
CC(=O)S[C@@H]1CC2=CC(=O)CC[C@]2(C)[C@H]2CC[C@@]3(C)[C@@H](CC[C@@]34CCC(=O)O4)[C@H]12,–,inconclusive: 10 µM
Cc1ccc(C)c(OCCCC(C)(C)C(=O)O)c1,–,active: 15.6 µM
c1ccc2c(c1)Cc1ccccc1-2,–,inconclusive: 0.023 µM
O=[N+]([O-])c1ccc(O)cc1,–,inconclusive: 0.0339 µM
CC/C=C\CCOC(C)=O,–,inconclusive: 1.5 µM
O=C(c1ccc(OCCN2CCCCC2)cc1)c1c(-c2ccc(O)cc2)sc2cc(O)ccc12,–,active: 4.25 µM [middle of 4 runs]
CCOC(N)=O,–,inconclusive: 0.741 µM
CC1(C)C(C=C(Cl)Cl)C1C(=O)OCc1cccc(Oc2ccccc2)c1 (stereo unspecified),–,inconclusive: 10 µM
